Laboratory results taken from patent US10195164B2, “Use of disulfiram for inflammatory breast cancer therapy” (Duke University, priority 2015, dated 2019).
At least one compound was matched to its structure with a doubt left.

Key:
Nrf2 = Nrf2 activity assay (ARE luciferase reporter); assay type: cell-based; conditions: Cu 10 μM, DSF 10-20 μM, DSF-Cu 150 nM
Description: Cells in opaque 96-well plates (Greiner Bio-One) were transfected with pGL4.37 (ARE firefly luciferase reporter, Promega) and pGL4.75 (Renilla luciferase control, Promega) plasmids using a 3:1 ratio of […] (Roche Applied Science, Indianapolis, Ind.) to DNA. The next day, cells were treated with as indicated. After 24 h, the Dual-Glo Luciferase Assay System (Promega) was used and luminescence read on a Veritas microplate luminometer (Turner BioSystems). Firefly luminescence was normalized to Renilla luminescence for each sample, and this value normalized to untreated.

[1] = test system: SUM149 subcutaneous flank tumors; assay: Human breast tumor xenograft study; assay type: in vivo

**Q.** Which results are given for `CCN(CC)C(=S)SSC(=S)N(CC)CC` [DSF, Disulfiram]?
**A.** Nrf2 transcriptional activity (Nrf2): induced Nrf2 transcriptional activity; tumor burden ([1]; at the time of dissection): reduced; tumor growth ([1]; daily ip treatment, compared to vehicle control): no reduction in tumor growth; TUNEL staining (apoptotic marker) of tumor tissue ([1]; excised tumors): little to no TUNEL staining
